{"source": "patent US6610686B1", "about": "“Use of pirenoxine for the protection of corneal tissues in photokeractomy” (Ausimont S.p.A., priority 1999, dated 2003)", "tested_on": "epithelial corneal cells (SIRC)", "assay": "In vitro protection of UV312 irradiated epithelial corneal cells (SIRC)", "format": "cell-based", "settings": "UV312 80 mJ/cm^2, 10^−5 pirenoxine, 17 hours at 37° C.", "protocol": "The protective effect of pirenoxine on epithelial comeal cells (SIRC) irradiated for 36″ using UV312 light (80 mJ/cm^2), according to the following procedure: (a) the comeal cells were plated in 35 mm diameter wells; (b) at 80% confluency the cells were contacted with a medium at low (0,2%) serum content to inhibit the proliferation thereof during the experiment (c) the cells were irradiated with UV light in presence and in absence of 10^−5 pirenoxine, incubated at 37° C. for 17 hours and homogenized in 10 mM f) phosphate buffer, pH 7,4; (d) the lipid-soluble fluorescent substances and the proteins contained in suitable homogenate aliquots were determined.", "data": [{"smiles": "O=C(O)c1cc(O)c2c3nc4ccccc4oc-3cc(=O)c2n1", "note": "[pirenoxine, 1-hydroxy-5-oxo-5H-pyrido-[3,2a]-phenoxazin-3-carboxylic acid]", "values": [{"measurement": "Proteins", "setting": "Cells 14/01", "result": 0.333, "unit": "mg/mL"}, {"measurement": "Proteins", "setting": "Cells 17/12", "result": 0.403, "unit": "mg/mL"}, {"measurement": "Proteins", "setting": "Cells 20/12", "result": 0.245, "unit": "mg/mL"}]}]}
